Experimental data published in patent US11945862B2, “Compositions and methods for antibody production” (ImmunoGen, Inc., priority 2017, dated 2024).
Some entries repeat one wording, which the source may state once for all of them.

Test system: humanized N901 IgG1
Test: Covalent modification of antibody after agent treatment (mass spectrometry of deglycosylated antibody)
[1] = 1 mM agent and 0.35 ml CHO cell lysate, 3 hours, mass spectrometry

| Compound | covalent modification of antibody [1] | covalent modification of antibody (antibody incubated with coenzyme Q0, mass spectrometry) |
| --- | --- | --- |
| O=C(O)CCCCC1CCSS1 (racemic) [lipoic acid, 1,2-dithiolane-3-pentanoic acid] | did not covalently modify the antibody | – |
| O=C1c2ccccc2C(=O)c2cc(S(=O)(=O)O)ccc21 [AQS, anthraquinone-2-sulfonic acid] | did not covalently modify the antibody | – |
| COC(=O)[C@@H](N)CSSC[C@H](N)C(=O)OC [CDME, L-cystine dimethyl ester] | did not covalently modify the antibody | – |
| COC1=C(OC)C(=O)C(C)=CC1=O [coenzyme Q0, 2,3-dimethoxy-5-methyl-p-benzoquinone] | – | not covalently modified |
